Test results: article PMC5966378
No constants are given. Whether binding was seen depends on the method and setting. Some binding calls cover weakened binding; strength is not graded here.

Protein sequences, listed by entry. Tags and fused reporters are not part of them.
UniProt P0A6Y8: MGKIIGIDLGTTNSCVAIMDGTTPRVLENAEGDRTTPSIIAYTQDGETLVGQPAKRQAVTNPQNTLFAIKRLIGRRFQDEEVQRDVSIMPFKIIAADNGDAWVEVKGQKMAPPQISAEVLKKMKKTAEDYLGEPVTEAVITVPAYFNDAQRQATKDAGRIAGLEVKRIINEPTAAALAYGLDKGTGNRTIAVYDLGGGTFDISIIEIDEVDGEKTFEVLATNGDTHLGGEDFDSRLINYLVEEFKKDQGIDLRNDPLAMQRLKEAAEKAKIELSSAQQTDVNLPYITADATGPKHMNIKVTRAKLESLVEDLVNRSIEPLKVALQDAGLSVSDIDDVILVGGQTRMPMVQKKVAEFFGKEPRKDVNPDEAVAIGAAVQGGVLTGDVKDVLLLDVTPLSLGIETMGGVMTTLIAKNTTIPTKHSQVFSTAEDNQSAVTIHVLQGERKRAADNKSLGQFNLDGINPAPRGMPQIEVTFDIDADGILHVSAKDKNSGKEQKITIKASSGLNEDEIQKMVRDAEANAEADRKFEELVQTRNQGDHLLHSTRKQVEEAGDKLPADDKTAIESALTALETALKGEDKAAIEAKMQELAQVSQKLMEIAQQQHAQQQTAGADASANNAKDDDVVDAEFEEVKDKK
UniProt P08622: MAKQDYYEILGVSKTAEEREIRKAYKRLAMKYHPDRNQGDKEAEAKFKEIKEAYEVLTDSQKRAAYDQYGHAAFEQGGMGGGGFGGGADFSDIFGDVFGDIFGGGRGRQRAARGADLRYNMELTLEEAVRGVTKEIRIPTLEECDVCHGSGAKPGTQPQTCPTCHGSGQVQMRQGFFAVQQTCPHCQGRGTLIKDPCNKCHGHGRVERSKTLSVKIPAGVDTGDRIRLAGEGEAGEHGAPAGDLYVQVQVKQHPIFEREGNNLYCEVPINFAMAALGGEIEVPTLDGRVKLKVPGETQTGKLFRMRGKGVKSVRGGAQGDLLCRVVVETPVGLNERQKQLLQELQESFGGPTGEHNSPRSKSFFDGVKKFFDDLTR

Molecular target: DnaK, purified (StressGen) (UniProt P0A6Y8)
Experiment: native gel or EMSA; both purified

For “DnaJ, purified (StressGen) (from UniProt P08622 1-376)”, the binding was “binds”.
